# Laboratory results as given in PubChem BioAssay AID445 (National Center for Advancing Translational Sciences (NCATS), 2006).
# The other results are listed elsewhere or left out. These are further read-outs of the screen, such as a control signal, another cell line or another target. No call is given for them. Most of these compounds were active or inconclusive in the main read-out, so they are no random draw. Words in brackets tell the shape of the fitted curve; partial curves, single points and poor fits give uncertain potencies.
# Test: IkB Signaling
# Conditions: ABC-DLBCL IkBa-CBG/CBR dual luciferase ratio (green luciferase fused to IkBa over red control in OCI-Ly3 lymphoma cells), 4 h; measured here: control luc red channel unless noted
# In short: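 Curves were fitted separately to fusion (green), unfused (red) and ratio luminescence, then classed by r2, magnitude and activity. Cells: OCI-Ly3, 4 h compound plus doxycycline at 37C; 10 uM MG-132 defined full response.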
row,SMILES,AC50
1,COc1ccc(CNC(=O)C2CCN(c3nnc(-n4cccc4CNc4ccc(C)cc4)s3)CC2)c(OC)c1,"0.126 µM [falling, full curve]"
2,COc1ccc(C(=O)Nc2cc(OC)cc(OC)c2)cc1,"3.16 µM [falling, partial curve]"
3,COc1ccc(NC(=O)CSc2c3c(nc4ccccc24)CCC3)c(OC)c1,"15.8 µM [falling, partial curve]"
4,COc1cccc(Nc2sc(C(=O)c3ccc(F)cc3)c(N)c2C(=O)NCc2ccc(C)cc2)c1,"1 µM [falling, full curve]"
5,CCOC(=O)c1ccc(NC(=O)C(C)N(c2ccc(OCC)cc2)S(C)(=O)=O)cc1 (configuration not stated),"39.8 µM [falling, single point]"
6,Cc1c(C(=O)Nc2ccc(F)c(F)c2)oc2ccc(S(=O)(=O)N(C)C3CCCCC3)cc12,"5.01 µM [falling, partial curve]"
7,Cc1cc(N2CCN(C)CC2)nc2ccc(NC(=O)c3ccc4c(c3)OCO4)cc12,"15.8 µM [falling, partial curve]"
8,COc1ccc(CCNC(=O)CCCCn2c(=O)c3ccccc3n(Cc3ccc(Cl)cc3)c2=O)cc1OC,"20 µM [falling, partial curve]"
9,Cc1ccc(-c2nnc(CSc3nnc(COc4ccccc4)n3-c3ccccc3)o2)cc1,"39.8 µM [falling, single point]"
10,Cc1ccc(C(=O)Nc2nc(-c3nnn(-c4cccc(Cl)c4C)c3C)ns2)cc1C,"1.26 µM [falling, full curve]"
11,COc1ccc(NC(=O)c2oc3c(c2C)-c2nn(Cc4ccccc4Cl)cc2CC3)cc1OC,"20 µM [falling, partial curve]"
12,Cc1cc(-c2nn3c(-c4ccccc4)nnc3s2)c2ccccc2n1,"10 µM [falling, partial curve]"
13,CC(C)C(C(=O)OCC(=O)c1ccc2c(c1)NC(=O)CO2)N1C(=O)c2ccccc2C1=O (configuration not stated),"39.8 µM [falling, partial curve]"
14,O=C(Cn1ccn(-c2cccc(Cl)c2)c(=O)c1=O)c1ccc(F)cc1,"0.316 µM [falling, full curve, poor fit]"
15,O=C(NCCCN1CCN(c2ccc(F)cc2)CC1)c1sc2ncccc2c1-n1cccc1,"15.8 µM [falling, single point]"
16,CCOc1ccc(CNC(=O)c2[nH]c3ccccc3c2Sc2ccc(C)cc2)cc1,"39.8 µM [falling, single point]"
17,O=C(NC1CCCCC1)c1ccc(CNc2ccccc2)o1,"25.1 µM [falling, partial curve]"
